At least one result comes from cells or an extract, where the contact may be indirect. No signal at the amounts used counts as a negative. At least one verdict rests on a figure or table, not on a statement of the authors. For some assays here: Where a protein sequence is shown, tags need not be part of it. For some assays here: Construct, isoform or probe ends are uncertain for at least one entry.
What was measured:
Experiment in all cases: southwestern blot
Details in all cases: 1 mM Mg2+; Southwestern: 5 uM folded fluorescent aptamer in PBS + 1 mM MgCl2, 14 h on PVDF blocked with 1% BSA, 10% milk, 2 mg/mL salmon testis DNA; washed in TBST then 0.5x TBE; protein in an extract; label: 5'-fluorescein; single-stranded DNA
[1] = test system: myelin basic protein 18.5 kDa isoform (mouse)
[2] = test system: proteolipid protein (PLP), 12.5 kDa apparent band (mouse)
[3] = target: T1, myelin oligodendrocyte glycoprotein (MOG), 23.8 kDa band (mouse) (UniProt Q61885)
T1 sequence (looked up, limits assumed): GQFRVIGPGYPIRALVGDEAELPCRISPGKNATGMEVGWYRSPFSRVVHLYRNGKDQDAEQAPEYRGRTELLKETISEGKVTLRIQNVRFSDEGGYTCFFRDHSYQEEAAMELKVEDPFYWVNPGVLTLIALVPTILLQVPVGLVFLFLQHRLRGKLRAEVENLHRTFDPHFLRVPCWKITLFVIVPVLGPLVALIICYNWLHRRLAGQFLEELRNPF

Chains of the proteins cited; added tags and fusions are not shown. A line that says so, or that is headed by a name, gives the form on record, which may keep a tag or linker.
myelin basic protein 18.5 kDa isoform (mouse), one chain, as listed by the source: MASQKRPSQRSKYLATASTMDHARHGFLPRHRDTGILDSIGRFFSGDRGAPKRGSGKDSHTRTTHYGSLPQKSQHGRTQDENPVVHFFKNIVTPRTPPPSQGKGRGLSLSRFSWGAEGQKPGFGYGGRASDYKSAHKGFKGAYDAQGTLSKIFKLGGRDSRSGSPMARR
myelin basic protein 21.5 kDa isoform (exon 2 containing) (mouse), one chain, as listed by the source, stated change not applied: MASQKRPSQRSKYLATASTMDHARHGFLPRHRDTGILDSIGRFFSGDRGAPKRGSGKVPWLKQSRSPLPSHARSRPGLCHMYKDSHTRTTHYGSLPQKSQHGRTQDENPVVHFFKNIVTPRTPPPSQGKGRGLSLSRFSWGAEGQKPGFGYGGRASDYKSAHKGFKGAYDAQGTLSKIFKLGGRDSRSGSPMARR

[4] = test system: myelin basic protein 17 kDa isoform (exon 2 containing) (mouse)
[5] = test system: myelin basic protein 21.5 kDa isoform (exon 2 containing) (mouse)

Measured: binding result

TTTTTTTTTTTTTTTTTTTTTTTTTTTTTTTTTTTTTTTT [control 3202 (LJM-3202, dT40)]
no binding: all assays above
